Reference: the supplement of paper PMC10849652
Some of the results follow.

Amino acid sequences for entries named in this document (tags omitted). A change or cut given only in a name is not applied to a line headed by its entry.
UniProt Q96BD8: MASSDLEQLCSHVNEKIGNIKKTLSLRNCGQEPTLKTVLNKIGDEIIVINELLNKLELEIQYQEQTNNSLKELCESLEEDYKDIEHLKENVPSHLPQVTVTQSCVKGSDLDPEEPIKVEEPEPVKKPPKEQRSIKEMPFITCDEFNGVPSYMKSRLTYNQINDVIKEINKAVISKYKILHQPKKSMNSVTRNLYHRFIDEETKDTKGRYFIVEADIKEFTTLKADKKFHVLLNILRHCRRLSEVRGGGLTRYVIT
UniProt P58004: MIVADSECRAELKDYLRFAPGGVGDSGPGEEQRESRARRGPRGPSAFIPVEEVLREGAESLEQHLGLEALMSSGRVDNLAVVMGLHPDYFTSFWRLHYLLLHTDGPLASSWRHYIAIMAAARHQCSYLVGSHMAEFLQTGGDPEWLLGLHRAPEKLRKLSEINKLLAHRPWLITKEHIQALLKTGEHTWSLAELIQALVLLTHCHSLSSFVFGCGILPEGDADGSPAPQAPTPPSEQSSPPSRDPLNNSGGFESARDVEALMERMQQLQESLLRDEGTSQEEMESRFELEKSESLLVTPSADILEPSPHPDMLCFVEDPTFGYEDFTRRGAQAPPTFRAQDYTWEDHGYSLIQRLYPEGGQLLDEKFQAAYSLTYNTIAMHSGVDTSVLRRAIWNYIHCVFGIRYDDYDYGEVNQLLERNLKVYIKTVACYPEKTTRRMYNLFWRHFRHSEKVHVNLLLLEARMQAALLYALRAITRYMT
UniProt P30740: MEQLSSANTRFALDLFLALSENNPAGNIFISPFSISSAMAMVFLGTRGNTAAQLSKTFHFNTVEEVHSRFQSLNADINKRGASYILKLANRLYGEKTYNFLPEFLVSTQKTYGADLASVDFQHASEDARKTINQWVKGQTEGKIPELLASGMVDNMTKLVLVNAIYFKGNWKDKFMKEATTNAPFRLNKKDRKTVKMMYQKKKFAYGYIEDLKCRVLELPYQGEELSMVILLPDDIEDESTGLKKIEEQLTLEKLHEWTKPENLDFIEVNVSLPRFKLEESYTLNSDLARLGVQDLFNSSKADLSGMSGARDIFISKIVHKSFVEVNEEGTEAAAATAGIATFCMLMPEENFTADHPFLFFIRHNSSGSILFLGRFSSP
UniProt Q8N6T7, whole entry, looked up: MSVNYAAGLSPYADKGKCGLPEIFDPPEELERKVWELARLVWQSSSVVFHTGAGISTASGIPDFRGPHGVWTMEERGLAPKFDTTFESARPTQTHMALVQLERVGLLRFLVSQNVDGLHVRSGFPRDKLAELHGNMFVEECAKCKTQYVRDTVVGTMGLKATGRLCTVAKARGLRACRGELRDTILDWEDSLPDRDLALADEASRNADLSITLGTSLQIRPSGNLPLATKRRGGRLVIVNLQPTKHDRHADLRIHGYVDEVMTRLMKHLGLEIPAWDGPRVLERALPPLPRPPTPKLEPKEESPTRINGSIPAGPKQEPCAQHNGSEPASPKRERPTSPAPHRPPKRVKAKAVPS
UniProt A0MZ66, whole entry, looked up: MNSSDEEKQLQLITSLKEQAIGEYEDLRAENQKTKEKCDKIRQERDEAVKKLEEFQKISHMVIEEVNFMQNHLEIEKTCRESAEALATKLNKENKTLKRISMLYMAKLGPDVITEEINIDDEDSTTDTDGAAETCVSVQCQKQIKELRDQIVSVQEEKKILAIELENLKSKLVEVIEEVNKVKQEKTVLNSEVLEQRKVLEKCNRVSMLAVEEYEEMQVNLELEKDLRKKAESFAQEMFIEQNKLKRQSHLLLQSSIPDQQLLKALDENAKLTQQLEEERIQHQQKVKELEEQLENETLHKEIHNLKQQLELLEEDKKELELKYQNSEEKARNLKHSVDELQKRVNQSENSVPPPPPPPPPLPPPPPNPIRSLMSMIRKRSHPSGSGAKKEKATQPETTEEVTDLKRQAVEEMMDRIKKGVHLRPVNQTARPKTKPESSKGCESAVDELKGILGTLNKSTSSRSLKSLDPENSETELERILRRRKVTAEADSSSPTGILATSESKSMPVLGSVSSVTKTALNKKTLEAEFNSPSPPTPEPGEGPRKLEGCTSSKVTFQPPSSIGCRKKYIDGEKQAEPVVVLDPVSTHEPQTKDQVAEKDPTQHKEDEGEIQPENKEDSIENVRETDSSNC
UniProt Q96EQ0: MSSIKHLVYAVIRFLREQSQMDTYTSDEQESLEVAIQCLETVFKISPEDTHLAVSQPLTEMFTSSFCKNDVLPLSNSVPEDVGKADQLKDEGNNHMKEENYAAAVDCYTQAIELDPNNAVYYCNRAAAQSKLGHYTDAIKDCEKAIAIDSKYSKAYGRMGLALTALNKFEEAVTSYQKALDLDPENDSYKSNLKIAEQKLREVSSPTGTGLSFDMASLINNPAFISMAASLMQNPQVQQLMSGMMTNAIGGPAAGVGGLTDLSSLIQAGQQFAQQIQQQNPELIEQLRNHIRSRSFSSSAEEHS
UniProt Q9NP31, whole entry, looked up: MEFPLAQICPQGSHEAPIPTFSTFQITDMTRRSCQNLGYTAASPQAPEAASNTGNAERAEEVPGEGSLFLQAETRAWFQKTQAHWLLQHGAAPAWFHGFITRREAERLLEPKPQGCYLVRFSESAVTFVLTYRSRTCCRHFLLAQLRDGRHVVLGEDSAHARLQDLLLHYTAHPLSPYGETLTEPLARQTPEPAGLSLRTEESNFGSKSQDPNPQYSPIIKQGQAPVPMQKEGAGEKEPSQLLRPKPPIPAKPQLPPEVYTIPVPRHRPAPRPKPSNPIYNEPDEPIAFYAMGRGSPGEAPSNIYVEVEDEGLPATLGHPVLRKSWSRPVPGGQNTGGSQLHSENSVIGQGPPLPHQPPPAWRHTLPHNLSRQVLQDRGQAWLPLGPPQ
UniProt Q9BX95: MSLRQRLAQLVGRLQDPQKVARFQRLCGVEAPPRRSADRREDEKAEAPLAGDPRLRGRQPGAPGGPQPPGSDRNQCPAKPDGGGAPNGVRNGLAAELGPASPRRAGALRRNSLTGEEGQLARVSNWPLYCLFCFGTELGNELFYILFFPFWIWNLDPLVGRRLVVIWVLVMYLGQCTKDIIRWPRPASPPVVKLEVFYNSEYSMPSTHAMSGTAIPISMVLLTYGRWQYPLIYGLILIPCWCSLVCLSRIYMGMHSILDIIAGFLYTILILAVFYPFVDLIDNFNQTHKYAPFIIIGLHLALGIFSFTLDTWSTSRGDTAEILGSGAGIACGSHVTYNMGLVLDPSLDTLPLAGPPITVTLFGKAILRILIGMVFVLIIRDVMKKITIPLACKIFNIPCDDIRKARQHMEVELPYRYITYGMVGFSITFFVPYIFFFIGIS
UniProt Q96ES7: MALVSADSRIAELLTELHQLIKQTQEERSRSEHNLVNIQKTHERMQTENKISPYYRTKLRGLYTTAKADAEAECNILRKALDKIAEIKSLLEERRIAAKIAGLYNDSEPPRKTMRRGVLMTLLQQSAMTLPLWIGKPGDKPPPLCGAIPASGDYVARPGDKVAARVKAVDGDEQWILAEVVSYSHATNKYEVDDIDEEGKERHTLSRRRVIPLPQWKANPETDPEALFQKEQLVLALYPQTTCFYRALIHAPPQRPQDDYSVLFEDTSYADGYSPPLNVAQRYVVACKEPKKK
UniProt Q8WVK7: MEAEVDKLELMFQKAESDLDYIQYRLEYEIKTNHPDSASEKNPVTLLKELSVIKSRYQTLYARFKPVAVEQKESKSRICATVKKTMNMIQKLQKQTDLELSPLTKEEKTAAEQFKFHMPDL
UniProt Q9UGK8: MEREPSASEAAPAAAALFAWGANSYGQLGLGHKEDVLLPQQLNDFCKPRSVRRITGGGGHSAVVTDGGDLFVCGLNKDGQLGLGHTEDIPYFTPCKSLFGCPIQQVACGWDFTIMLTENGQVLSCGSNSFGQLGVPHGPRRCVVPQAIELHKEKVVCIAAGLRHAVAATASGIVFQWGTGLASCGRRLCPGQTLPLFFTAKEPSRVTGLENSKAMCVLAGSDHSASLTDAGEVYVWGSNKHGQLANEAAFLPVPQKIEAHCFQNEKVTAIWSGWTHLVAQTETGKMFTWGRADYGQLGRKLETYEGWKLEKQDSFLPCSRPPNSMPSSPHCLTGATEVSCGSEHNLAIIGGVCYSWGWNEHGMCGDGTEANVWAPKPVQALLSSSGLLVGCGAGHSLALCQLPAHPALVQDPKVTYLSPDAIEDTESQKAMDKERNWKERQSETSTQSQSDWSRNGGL
UniProt Q8NC51: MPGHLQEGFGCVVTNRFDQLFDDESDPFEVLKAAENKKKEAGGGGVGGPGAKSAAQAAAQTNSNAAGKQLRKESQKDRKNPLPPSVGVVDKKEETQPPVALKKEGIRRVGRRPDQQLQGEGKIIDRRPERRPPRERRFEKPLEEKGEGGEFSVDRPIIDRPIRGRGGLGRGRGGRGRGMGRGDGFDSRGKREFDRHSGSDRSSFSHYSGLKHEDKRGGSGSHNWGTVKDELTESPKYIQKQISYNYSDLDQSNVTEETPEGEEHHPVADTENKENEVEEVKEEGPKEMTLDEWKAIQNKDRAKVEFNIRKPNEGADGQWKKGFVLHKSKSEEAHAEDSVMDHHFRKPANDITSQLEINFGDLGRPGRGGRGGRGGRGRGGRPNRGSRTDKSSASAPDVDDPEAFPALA
UniProt Q8TBC3: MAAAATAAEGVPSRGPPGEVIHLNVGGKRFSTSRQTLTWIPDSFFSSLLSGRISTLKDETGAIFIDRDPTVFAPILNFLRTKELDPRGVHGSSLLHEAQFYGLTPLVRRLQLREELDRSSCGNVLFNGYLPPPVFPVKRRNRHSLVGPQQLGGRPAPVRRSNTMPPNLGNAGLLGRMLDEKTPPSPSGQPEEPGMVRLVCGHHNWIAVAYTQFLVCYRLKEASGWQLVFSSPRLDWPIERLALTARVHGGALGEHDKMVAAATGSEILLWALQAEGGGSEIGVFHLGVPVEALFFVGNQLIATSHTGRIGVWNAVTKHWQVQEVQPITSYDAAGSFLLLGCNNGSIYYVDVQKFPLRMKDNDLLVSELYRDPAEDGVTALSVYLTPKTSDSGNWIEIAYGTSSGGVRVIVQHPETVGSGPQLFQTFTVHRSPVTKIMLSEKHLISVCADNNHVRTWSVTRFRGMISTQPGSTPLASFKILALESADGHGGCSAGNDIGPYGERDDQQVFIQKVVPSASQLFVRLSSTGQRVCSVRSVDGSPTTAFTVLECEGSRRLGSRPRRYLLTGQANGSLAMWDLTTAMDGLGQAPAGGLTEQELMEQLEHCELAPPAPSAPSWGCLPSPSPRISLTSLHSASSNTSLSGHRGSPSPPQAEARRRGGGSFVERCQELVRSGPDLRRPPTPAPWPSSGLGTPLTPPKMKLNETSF
UniProt Q13309, whole entry, looked up: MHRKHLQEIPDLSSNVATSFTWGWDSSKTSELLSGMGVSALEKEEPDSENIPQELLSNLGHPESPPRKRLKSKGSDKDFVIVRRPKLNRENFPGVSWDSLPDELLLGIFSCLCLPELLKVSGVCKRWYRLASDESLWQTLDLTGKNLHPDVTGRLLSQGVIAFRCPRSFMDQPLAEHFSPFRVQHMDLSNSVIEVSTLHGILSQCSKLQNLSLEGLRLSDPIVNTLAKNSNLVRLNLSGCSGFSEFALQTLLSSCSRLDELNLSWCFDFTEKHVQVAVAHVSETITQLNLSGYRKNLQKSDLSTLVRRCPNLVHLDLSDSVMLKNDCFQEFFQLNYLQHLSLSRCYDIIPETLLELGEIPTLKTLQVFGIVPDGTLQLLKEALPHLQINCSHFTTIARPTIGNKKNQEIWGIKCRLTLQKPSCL
UniProt O75563, whole entry, looked up: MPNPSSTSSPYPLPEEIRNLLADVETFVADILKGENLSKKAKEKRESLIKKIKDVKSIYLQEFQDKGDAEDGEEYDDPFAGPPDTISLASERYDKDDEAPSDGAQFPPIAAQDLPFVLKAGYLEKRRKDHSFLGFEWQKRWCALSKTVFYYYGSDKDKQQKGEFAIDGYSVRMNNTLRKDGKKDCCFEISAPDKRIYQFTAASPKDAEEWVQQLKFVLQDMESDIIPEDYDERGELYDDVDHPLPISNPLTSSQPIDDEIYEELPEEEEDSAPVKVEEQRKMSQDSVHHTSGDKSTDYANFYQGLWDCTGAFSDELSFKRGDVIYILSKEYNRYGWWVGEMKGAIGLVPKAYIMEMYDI
UniProt Q9UQQ2: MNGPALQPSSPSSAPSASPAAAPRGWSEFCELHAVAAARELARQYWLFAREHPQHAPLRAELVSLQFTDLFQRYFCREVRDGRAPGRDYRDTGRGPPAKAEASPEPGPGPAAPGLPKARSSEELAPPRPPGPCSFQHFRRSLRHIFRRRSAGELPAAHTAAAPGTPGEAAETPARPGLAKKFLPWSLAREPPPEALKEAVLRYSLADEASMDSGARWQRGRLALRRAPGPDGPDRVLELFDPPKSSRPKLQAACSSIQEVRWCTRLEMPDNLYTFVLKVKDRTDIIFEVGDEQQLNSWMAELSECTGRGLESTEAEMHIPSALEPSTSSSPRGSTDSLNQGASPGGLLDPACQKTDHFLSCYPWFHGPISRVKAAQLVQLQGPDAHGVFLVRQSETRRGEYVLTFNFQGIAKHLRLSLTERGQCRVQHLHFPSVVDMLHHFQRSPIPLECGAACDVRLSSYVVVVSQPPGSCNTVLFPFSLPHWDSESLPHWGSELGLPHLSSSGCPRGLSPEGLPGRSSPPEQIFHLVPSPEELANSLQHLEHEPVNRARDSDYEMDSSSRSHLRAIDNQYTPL

Experiments:
Assay in all cases: log2 fold change, soluble protein after heating vs DMSO (PISA); higher = thermal stabilisation; K562 lysate, 10 uM; active = over 0.2 and 3.5 SD of the protein, either way, in both replicates (recomputed)
erlotinib = compound: C#Cc1cccc(Nc2ncnc3cc(OCCOC)c(OCCOC)cc23)c1 [erlotinib]
Method in brief: (§1)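 Pellets of K562 cells were dounce-homogenised in PBS pH 7.4 with 1 mM MgCl2, and the crude extract was held at 1 mg/mL protein for a 30 min treatment with 10 μM compound. Aliquots were heated for 3 min over 48°C-58°C and pooled before NP-40 was added to 0.5% at 4°C. The supernatant from 21,000xg for 90 min was quantified by TMTpro 16plex LC-MS/MS with channel sums equalised. Values are reported from duplicates as log-two fold change in thermal stability relative to solvent controls.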

[1] = compound: C/C(=N\NC(=O)C1=CC(=CC=C1)S(=O)(=O)N2CCOCC2)/C3=C(C=CC(=C3)Cl)O
Method in brief: as §1

[2] = compound: C1=CC(=CC=C1C2=NC3=C(N2)C=C(C=C3)C(=O)N)OC4=CC=C(C=C4)Cl
Method in brief: as §1

[3] = compound: C1=CC2=C(C=CC(=C2)/C=C\3/C(=O)NC(=NCC4=CC=CS4)S3)N=C1
Method in brief: as §1

[4] = compound: C1=CC2=NC=CN=C2C=C1/C=C/3\C(=O)NC(=O)S3
Method in brief: as §1

[5] = compound: C1=CC=C(C=C1)C2=NC(=C(N2)C3=CC=NC=C3)C4=CC(=C(C=C4)Cl)O
Method in brief: as §1

[6] = compound: C1=CC=C2C(=C1)C3=NNC4=CC=CC(=C43)C2=O
Method in brief: as §1

[7] = compound: C1CCN(C1)C(=O)NC2=CC=CC(=C2)NC3=NC=C(C(=N3)NCCC4=CN=CN4)Br
Method in brief: as §1

[8] = compound: C1CN(CCC1(CC2=CC=C(C=C2)Cl)N)C3=NC=NC4=C3C=CN4
Method in brief: as §1

IRAK-1-4 Inhibitor I = compound: C1COCCN1CCN2C3=CC=CC=C3N=C2NC(=O)C4=CC(=CC=C4)[N+](=O)[O-] [IRAK-1-4 Inhibitor I]
Method in brief: as §1

Measured: log2 fold change

SKA1 (UniProt Q96BD8)
inactive: erlotinib -0.029 | [1] -0.015 | [2] 0.029 | [3] 0.072 | [4] -0.062 | [5] 0.065 | [6] -0.06 | [7] 0.02 | [8] -0.094 | IRAK-1-4 Inhibitor I 0.013

SESN2 (UniProt P58004)
inactive: erlotinib 0.043 | [1] 0.102 | [2] -0.007 | [3] -0.017 | [4] 0.023 | [5] -0.037 | [6] -0.07 | [7] 0.051 | [8] -0.014 | IRAK-1-4 Inhibitor I -0.048

SHPRH (UniProt Q149N8)
inactive: erlotinib 0.033 | [1] 0.042 | [2] -0.035 | [3] -0.162 | [4] 0.026 | [5] 0.022 | [6] 0.05 | [7] -0.17 | [8] 0.013 | IRAK-1-4 Inhibitor I 0.094

2 consecutive records from above:
SKA1 (UniProt Q96BD8)
inactive: erlotinib -0.029 | [1] -0.015 | [2] 0.029 | [3] 0.072 | [4] -0.062 | [5] 0.065 | [6] -0.06 | [7] 0.02 | [8] -0.094 | IRAK-1-4 Inhibitor I 0.013

SESN2 (UniProt P58004)
inactive: erlotinib 0.043 | [1] 0.102 | [2] -0.007 | [3] -0.017 | [4] 0.023 | [5] -0.037 | [6] -0.07 | [7] 0.051 | [8] -0.014 | IRAK-1-4 Inhibitor I -0.048

Later entries

SERPINB1 (UniProt P30740)
inactive: erlotinib 0.025 | [1] -0.04 | [2] 0.016 | [3] 0 | [4] -0.013 | [5] 0.004 | [6] -0.003 | [7] -0.005 | [8] 0.018 | IRAK-1-4 Inhibitor I 0.003

SIRT6 (UniProt Q8N6T7)
inactive: erlotinib 0.022 | [1] -0.008 | [2] -0.094 | [3] -0.024 | [4] 0.047 | [5] 0.069 | [6] -0.055 | [7] 0.01 | [8] 0.063 | IRAK-1-4 Inhibitor I 0.089

SHTN1 (UniProt A0MZ66)
inactive: erlotinib -0.023 | [1] -0.08 | [2] 0.02 | [3] 0.009 | [4] -0.024 | [5] 0.015 | [6] -0.026 | [7] 0.008 | [8] -0.005 | IRAK-1-4 Inhibitor I -0.011

SETD2 (UniProt Q9BYW2)
inactive: erlotinib 0.08 | [1] 0.188 | [2] 0.126 | [3] -0.084 | [4] -0.14 | [5] 0.011 | [6] 0.088 | [7] -0.003 | [8] -0.012 | IRAK-1-4 Inhibitor I 0.042

SGTB (UniProt Q96EQ0)
inactive: erlotinib -0.072 | [1] -0.008 | [2] 0.003 | [3] 0.024 | [4] 0.014 | [5] 0.003 | [6] -0.01 | [7] 0.074 | [8] 0.039 | IRAK-1-4 Inhibitor I -0.016

SH2D2A isoform 2 (UniProt Q9NP31)
inactive: erlotinib -0.046 | [1] 0.078 | [2] 0.06 | [3] 0.105 | [4] -0.022 | [5] 0.146 | [6] -0.074 | [7] 0.038 | [8] 0.126 | IRAK-1-4 Inhibitor I -0.025

SGPP1 (UniProt Q9BX95)
inactive: erlotinib -0.013 | [1] 0.081 | [2] -0.066 | [3] 0.082 | [4] 0.065 | [5] 0.07 | [6] -0.097 | [7] 0.089 | [8] -0.233 | IRAK-1-4 Inhibitor I -0.009

SGPL1 (UniProt O95470)
inactive: erlotinib -0.017 | [1] -0.112 | [2] -0.093 | [3] -0.062 | [4] -0.02 | [5] -0.003 | [6] -0.05 | [7] -0.051 | [8] -0.008 | IRAK-1-4 Inhibitor I 0.007

SGF29 (UniProt Q96ES7)
inactive: erlotinib 0.039 | [1] -0.003 | [2] 0.035 | [3] 0.004 | [4] -0.019 | [5] -0.028 | [6] -0.141 | [7] -0.053 | [8] 0.031 | IRAK-1-4 Inhibitor I -0.024

SFXN2 (UniProt Q96NB2)
inactive: erlotinib 0.04 | [1] -0.099 | [2] -0.008 | [3] 0.01 | [4] -0.053 | [5] 0.037 | [6] -0.077 | [7] -0.046 | [8] 0.026 | IRAK-1-4 Inhibitor I -0.022

SH3GL3 isoform 3 (UniProt Q99963)
inactive: erlotinib -0.023 | [1] -0.014 | [2] -0.002 | [3] -0.054 | [4] -0.053 | [5] -0.108 | [6] -0.133 | [7] 0.054 | [8] -0.06 | IRAK-1-4 Inhibitor I -0.124

SERPINC1 (UniProt P01008)
inactive: erlotinib -0.03 | [1] -0.075 | [2] 0.038 | [3] -0.025 | [4] 0.046 | [5] 0.124 | [6] -0.026 | [7] 0.054 | [8] 0.032 | IRAK-1-4 Inhibitor I -0.055

SLC19A1 (UniProt P41440)
inactive: erlotinib -0.032 | [1] -0.024 | [2] 0.049 | [3] -0.04 | [4] -0.025 | [5] -0.001 | [6] -0.017 | [7] -0.023 | [8] 0.023 | IRAK-1-4 Inhibitor I 0.033

SERPINI1 (UniProt Q99574)
inactive: erlotinib -0.003 | [1] -0.021 | [2] -0.037 | [3] 0.027 | [4] 0.054 | [5] -0.007 | [6] -0.117 | [7] 0.029 | [8] 0.038 | IRAK-1-4 Inhibitor I 0.031

SH3GL1 (UniProt Q99961)
inactive: erlotinib -0.009 | [1] 0.016 | [2] -0.022 | [3] -0.004 | [4] -0.008 | [5] 0.001 | [6] -0.003 | [7] -0.027 | [8] 0.006 | IRAK-1-4 Inhibitor I -0.017

SKA2 (UniProt Q8WVK7)
inactive: erlotinib -0.006 | [1] -0.058 | [2] 0.014 | [3] -0.011 | [4] -0.042 | [5] 0.001 | [6] -0.081 | [7] -0.006 | [8] -0.019 | IRAK-1-4 Inhibitor I -0.056

SERGEF (UniProt Q9UGK8)
inactive: erlotinib 0.082 | [1] 0.11 | [2] 0.03 | [3] 0.041 | [4] -0.029 | [5] 0.063 | [6] 0.131 | [7] -0.025 | [8] 0.017 | IRAK-1-4 Inhibitor I 0.002

SKOR2 (UniProt Q2VWA4)
inactive: erlotinib 0.083 | [1] -0.078 | [2] 0.02 | [3] -0.062 | [5] -0.087 | [6] -0.124 | [7] -0.052 | [8] 0.075 | IRAK-1-4 Inhibitor I -0.025

SERBP1 isoform 3 (UniProt Q8NC51)
inactive: erlotinib -0.021 | [2] 0.101 | [4] -0.041 | [5] 0.039 | [7] -0.067 | [8] 0.051 | IRAK-1-4 Inhibitor I -0.082

SHKBP1 (UniProt Q8TBC3)
inactive: erlotinib -0.005 | [1] -0.064 | [2] 0.058 | [3] 0.004 | [4] 0.011 | [5] 0.01 | [6] -0.018 | [7] 0.076 | [8] 0.189 | IRAK-1-4 Inhibitor I 0.022

SKP2 (UniProt Q13309)
inactive: erlotinib 0.06 | [1] -0.053 | [2] -0.063 | [3] 0.027 | [5] -0.023 | [6] -0.029 | [7] -0.027 | [8] 0.044 | IRAK-1-4 Inhibitor I -0.002

SKAP2 (UniProt O75563)
inactive: erlotinib 0.02 | [1] -0.013 | [2] -0.016 | [3] -0.021 | [4] -0.034 | [5] -0.006 | [6] -0.011 | [7] -0.034 | [8] 0.022 | IRAK-1-4 Inhibitor I 0.014

SH2B3 (UniProt Q9UQQ2)
inactive: erlotinib -0.009 | [1] -0.022 | [2] 0.012 | [3] 0.03 | [6] -0.224 | [7] 0.017 | [8] 0.125

SHOC2 (UniProt Q9UQ13)
inactive: erlotinib 0.054 | [1] 0.021 | [2] -0.015 | [3] -0.02 | [4] -0.016 | [5] 0.005 | [6] 0 | [7] 0.013 | [8] -0.003 | IRAK-1-4 Inhibitor I 0.007
